Assay results as given in publication PMC5387032 (Photosynthesis Research, 2017).
These are yes or no findings as the source states them, for the method shown. Some entries that bind do so weakly or less than the wild type. Tags and fused reporters may be left off the sequences shown.

Amino acid sequences for entries named in this document (tags omitted).
UniProt Q8DIS5: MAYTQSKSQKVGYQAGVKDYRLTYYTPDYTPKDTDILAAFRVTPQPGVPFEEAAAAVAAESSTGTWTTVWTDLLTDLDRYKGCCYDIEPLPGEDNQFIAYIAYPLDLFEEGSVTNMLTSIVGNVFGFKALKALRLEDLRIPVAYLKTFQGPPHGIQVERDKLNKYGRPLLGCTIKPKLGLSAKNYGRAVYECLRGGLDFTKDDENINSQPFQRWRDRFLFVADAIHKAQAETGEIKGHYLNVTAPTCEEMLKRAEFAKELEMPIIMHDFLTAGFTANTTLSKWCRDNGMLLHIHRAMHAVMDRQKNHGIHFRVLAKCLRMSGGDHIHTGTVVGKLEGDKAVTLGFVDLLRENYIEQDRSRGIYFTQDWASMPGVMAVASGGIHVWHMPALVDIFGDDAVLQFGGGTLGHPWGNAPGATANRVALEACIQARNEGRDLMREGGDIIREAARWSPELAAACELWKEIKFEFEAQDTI

How the values were obtained:
[1] = molecular target: RbcL from Thermosynechococcus elongatus, made in E. coli (Thermosynechococcus elongatus) (UniProt Q8DIS5); experiment: native gel or EMSA; purified proteins or complexes (2.5 µg, or 5 µg where in excess) mixed, incubated 10 min at room temperature, native PAGE, Coomassie-stained; both purified
[2] = molecular target: RbcL from Thermosynechococcus elongatus, made in E. coli (Thermosynechococcus elongatus) (UniProt Q8DIS5); experiment: co-purification (ammonium sulfate precipitation, ion exchange chromatography); complexes formed on co-expression in E. coli Rosetta; ammonium sulfate precipitation and Q-Sepharose, 20 mM Tris pH 8.0, 2 mM β-mercaptoethanol, 0–500 mM NaCl gradient
[3] = molecular target: RbcL from Thermosynechococcus elongatus, made in E. coli (Thermosynechococcus elongatus) (UniProt Q8DIS5); experiment: native gel or EMSA; raf1 from Synechocystis co-expressed with rbcL genes in E. coli (or rbcL alone); crude extracts separated by native PAGE and probed with anti-RbcL or anti-RAF1 antibodies

binding [1]: binds
binding [2]: binds
binding [3]: binds
B1: RAF1 from Synechocystis sp. PCC 6803, untagged, made in E. coli (protein)
chain: MTHSPESNPTVSAAEAAELIRSLLHKEGTWVDWGKKCQQLQKAGYGAEEIFEQSGFQKVQQNLVIVASQVYESLVKQGIDETVLSYYRGPKSDVLYELRILNHQQRAIAAVEAQQKNLAADEAKELAKAFQEFGYLSQLPEGFTDHPGDALAYQCWKLARQKKNLPERTRLIVKGLKFAHSPNARQAIEKLLTDLTAQPSRKAPLVPVFRLEEDQEAARLIPVAGTFPLQPQAVQAVQSLEQVEPFGLVSYQGEGAVVPVPQWQAILTAEDPVAIFCPAGQVSESLARKDEQVLVVVDRSKKIWNDGSYFLLNQGETVAIQWCETEPEREILAQVVLVLRPKKIFDANNLREPWQMDD
